Each structure is given as a SMILES string. “And” between values parts separate entries of the source, which are not always exact repeats. Equal values may be shown once. The list shows a part of the results. Several reference drugs read as weak here; read low effects with care.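 Prematurely aging human mesenchymal stem cells without the Werner syndrome gene were monitored by automated live-cell imaging over three biological repeats. The top twenty drugs for increasing growth versus vehicle moved forward; no fixed cutoff was specified.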 Square brackets hold non-standard residues; d marks the D form. Peptide text beside a SMILES is read from it. pGlu = O=C1CC[C@@H](C(=O)O)N1; Thz = O=C(O)[C@@H]1CSCN1

This assay deals with Werner syndrome hMSCs (WRN-/-). The assay can be described thus: relative cell density (fold change vs vehicle control); higher = more proliferation (geroprotective). To be noted: concentration (umol/L): 1, 6 days.

Take `CCS(=O)(=O)N1CC(CC#N)(n2cc(-c3ncnc4[nH]ccc34)cn2)C1`: for the setting “vehicle: DMSO”, the relative cell density was found to be 1.66.
The molecule `Cc1[nH]cnc1CN1CCc2c(c3ccccc3n2C)C1=O` came in with a relative cell density (vehicle: Water) of 1.66.
The molecule `CO[C@H]1/C=C/O[C@@]2(C)Oc3c(C)c(O)c4c(O)c(c5c(nc6cc(C)ccn65)c4c3C2=O)NC(=O)/C(C)=C\C=C\[C@H](C)[C@H](O)[C@@H](C)[C@@H](O)[C@@H](C)[C@H](OC(C)=O)[C@@H]1C` gave a relative cell density (vehicle: DMSO) of 0.847.
`CCCCCOc1ccccc1/C(=C\SC)n1ccnc1` displayed a relative cell density (vehicle: DMSO) of 1.15.
In turn, `Clc1cccc(Cl)c1NC1=NCCN1` displayed a relative cell density (vehicle: DMSO) of 1.24.
`C[C@]12C=CC(=O)N[C@@H]1CC[C@@H]1[C@@H]2CC[C@]2(C)[C@@H](C(=O)Nc3cc(C(F)(F)F)ccc3C(F)(F)F)CC[C@@H]12`: the relative cell density (vehicle: DMSO) came out at 0.863.
For the setting “vehicle: DMSO”, `CCCNC(=O)NS(=O)(=O)c1ccc(Cl)cc1` registered a relative cell density of 1.36.
Consider `COc1ccc(Cl)c(Nc2nc3ccccc3nc2NS(=O)(=O)c2cccc(NC(=O)C(C)(C)N)c2)c1`, for which the relative cell density (vehicle: DMSO) is 0.885.
On the same count and under the same terms, then `CC(=O)O[C@]1(C(C)=O)CC[C@H]2[C@@H]3C=C(Cl)C4=CC(=O)CC[C@]4(C)[C@H]3CC[C@@]21C`, with 1.23; and `Cc1cnc(Nc2ccc(OCCN3CCCC3)cc2)nc1Nc1cccc(S(=O)(=O)NC(C)(C)C)c1`, with 0.455; and `CNCCc1ccccn1`, with 1.03.
Regarding `NCCCCCC(=O)O`, the relative cell density (vehicle: DMSO) stood at 0.887.
Still for that read-out and setting: then `CN(C)C(=N)NC(=N)N`, with 1.22.
For the molecule `Nc1nc2c(ncn2COC(CO)CO)c(=O)[nH]1`, the relative cell density (vehicle: DMSO) is 1.18.
For the setting “vehicle: DMSO”, `CCOC(=O)[C@H]1O[C@@H]1C(=O)N[C@@H](CC(C)C)C(=O)NCCC(C)C` yielded a relative cell density of 1.23.
Turning to `CC(C)NCC(O)COc1ccc(CC(N)=O)cc1` (configuration not stated), the relative cell density (vehicle: DMSO) was found to be 1.41.
Under “vehicle: DMSO”, `Cn1c(=O)c2c(ncn2CC2OCCO2)n(C)c1=O` came in with a relative cell density of 1.2.
Still for that read-out and setting: for `CC(C)(C)c1cc(C(C)(C)C)c(NC(=O)c2c[nH]c3ccccc3c2=O)cc1O` the value was 1.01; for `Cc1ccc([C@@H]2O[C@H](CO)[C@@H](O)[C@H](O)[C@H]2O)cc1Cc1ccc(-c2ccc(F)cc2)s1`, 1.13.
For the molecule `CN1CCN(CC(=O)N2c3ccccc3C(=O)Nc3cccnc32)CC1`, the relative cell density (vehicle: Water) was 0.871.
For `CCCCC(CC)COC(=O)CC(C(=O)OCC(CC)CCCC)S(=O)(=O)O` (configuration not stated), under “vehicle: DMSO”, the relative cell density was found to be 1.21.
Same read-out and setting: for `Nc1ncnc2c1ncn2[C@@H]1O[C@H](CO)[C@@H](O)[C@@H]1O` the value was 1.48; for `CCOc1nc2cccc(C(=O)O)c2n1Cc1ccc(-c2ccccc2-c2nnn[nH]2)cc1`, 1.12; for `C[C@@](Cc1ccc(O)c(O)c1)(NN)C(=O)O`, 1.19.
Same read-out and setting: then `CN(C)CCC(c1ccc(Br)cc1)c1ccccn1` (configuration not stated), with 0.959.
The same measure, in the same setting: for `O=c1[nH]c2ccccc2n1CCN1CCN(c2cccc(C(F)(F)F)c2)CC1` the value was 1.12.
Under “vehicle: DMSO”, `Oc1c(Cl)cc(Cl)c2cccnc12` yielded a relative cell density of 0.937.
Still for that read-out and setting: then `c1ccc(-c2ccc(C(c3ccccc3)n3ccnc3)cc2)cc1` (configuration not stated), with 1.14.
On the same count and under the same terms, for `O=C1CC[C@@H](C(=O)N2CSC[C@H]2C(=O)O)N1` ([pGlu]-[Thz]-OH) the value was 1; for `COC(=O)C1=C(C)NC(C)=C(C(=O)OC(C)(C)CN(C)CCC(c2ccccc2)c2ccccc2)C1c1cccc([N+](=O)[O-])c1` (configuration not stated), 1.41; for `CCCCc1oc2ccc(NS(C)(=O)=O)cc2c1C(=O)c1ccc(OCCCN(CCCC)CCCC)cc1`, 1.5.
`CCC1(c2ccccc2)C(=O)NCNC1=O` registered a relative cell density (vehicle: DMSO) of 1.05.
Still for that read-out and setting: then `COc1cccc2c1C(=O)c1c(O)c3c(c(O)c1C2=O)CC(O)(C(=O)CO)CC3OC1CC(N)C(O)C(C)O1` (configuration not stated), with 0.0817; and `COc1cc(Nc2c(C#N)cnc3cc(OCCCN4CCN(C)CC4)c(OC)cc23)c(Cl)cc1Cl`, with 1.04.
Same read-out and setting: then `Cc1cc(C#N)cc(C)c1Oc1nc(Nc2ccc(C#N)cc2)nc(N)c1Br`, with 1.03.
Same read-out and setting: then `Cc1nnc(SCC2=C(C(=O)O)N3C(=O)[C@@H](NC(=O)Cn4cnnn4)[C@H]3SC2)s1`, with 1.18; and `O=c1[nH]c(=O)n([C@H]2C[C@H](O)[C@@H](CO)O2)cc1C(F)(F)F`, with 1.05.
Consider `CC1(C)S[C@@H]2[C@H](NC(=O)COc3ccccc3)C(=O)N2[C@H]1C(=O)O`, for which the relative cell density (vehicle: Water) stood at 1.16.
Under “vehicle: Water”, `c1cc(CN2CCCNCCNCCCNCC2)ccc1CN1CCCNCCNCCCNCC1` gave a relative cell density of 1.71.
Under “vehicle: DMSO”, `CN(Cc1ccc(C(C)(C)C)cc1)Cc1cccc2ccccc12` displayed a relative cell density of 1.15.
`Cc1ccccc1C(=O)Nc1ccc(C(=O)N2CCCC(N(C)C)c3ccccc32)cc1` (configuration not stated): the relative cell density (vehicle: Water) is 1.15.
As to `S=c1[nH]cnc2nc[nH]c12`, the relative cell density (vehicle: DMSO) was 1.07.
On to `Cc1cccc(Nc2ccncc2S(=O)(=O)NC(=O)NC(C)C)c1`, for which, under “vehicle: Water”, the relative cell density was 0.792.
Take `CC1(C)O[C@@H]2[C@@H](CO[C@@]3(COS(N)(=O)=O)OC(C)(C)O[C@@H]23)O1`: the relative cell density (vehicle: DMSO) is 1.34.
Turning to `COc1cc(NS(=O)(=O)c2ccc(N)cc2)nc(OC)n1`, the relative cell density (vehicle: DMSO) was determined as 1.31.
`CCNC(=O)[C@@H]1CCCN1C(=O)[C@H](CCCNC(=N)N)NC(=O)[C@H](CC(C)C)NC(=O)[C@@H](CC(C)C)NC(=O)[C@H](Cc1ccc(O)cc1)NC(=O)[C@H](CO)NC(=O)[C@H](Cc1c[nH]c2ccccc12)NC(=O)[C@H](Cc1c[nH]cn1)NC(=O)[C@@H]1CCC(=O)N1` gave a relative cell density (vehicle: DMSO) of 1.04.
Still for that read-out and setting: then `O=C1N=C(O)NC1(c1ccccc1)c1ccccc1`, with 1.1.
With `CC(C)Cn1cnc2c(N)nc3ccccc3c21`, where the note is “vehicle: Water”, the relative cell density is 0.753.
For `NC(=O)N1c2ccccc2CC(=O)c2ccccc21`, the relative cell density (vehicle: DMSO) is 1.42.
In the case of `NC1=NCC2c3ccccc3Cc3ccccc3N12` (configuration not stated), the relative cell density (vehicle: DMSO) amounted to 1.16.
On the same count and under the same terms, for `CCCNC(C)C(=O)Nc1c(C)csc1C(=O)OC` (configuration not stated) the value was 0.988.
As for `CNCc1ccc(-c2[nH]c3cc(F)cc4c3c2CCNC4=O)cc1`, the relative cell density (vehicle: DMSO) worked out at 0.709.
As to `Cc1cn([C@H]2C[C@H](N=[N+]=[N-])[C@@H](CO)O2)c(=O)[nH]c1=O`, under “vehicle: DMSO”, the relative cell density worked out at 0.959.
Regarding `COc1ccc([C@@H]2Sc3ccccc3N(CCN(C)C)C(=O)[C@@H]2OC(C)=O)cc1`, the relative cell density (vehicle: DMSO) turned out to be 0.93.
In the case of `NS(=O)(=O)Cc1noc2ccccc12`, the relative cell density (vehicle: DMSO) worked out at 1.09.
Still for that read-out and setting: for `CC(C[N+](C)(C)C)OC(N)=O` (configuration not stated) the value was 1.29.
Regarding `NCCC(O)(P(=O)(O)O)P(=O)(O)O`, under “vehicle: Water”, the relative cell density is 0.94.
`Cc1ccc(Sc2ccccc2N2CCNCC2)c(C)c1` registered a relative cell density (vehicle: DMSO) of 1.16.
Same read-out and setting: then `NCC(=O)CCC(=O)O`, with 0.974; and `O=C(CCCN1CCC(O)(c2ccc(Cl)cc2)CC1)c1ccc(F)cc1`, with 1.24; and `O=C(O)C[C@H](O)C[C@H](O)/C=C/c1c(C2CC2)nc2ccccc2c1-c1ccc(F)cc1`, with 0.386.
Same read-out and setting: then `Cc1ccc(C)c(OCCCC(C)(C)C(=O)O)c1`, with 1.02; and `CC1(C)[C@@H](O)CC[C@]2(C)[C@H]3C(=O)C=C4[C@@H]5C[C@@](C)(C(=O)O)CC[C@]5(C)CC[C@@]4(C)[C@]3(C)CC[C@@H]12`, with 1.08; and `COC(=O)CCc1ccc(OCC(O)CNC(C)C)cc1` (configuration not stated), with 1.22.
Still for that read-out and setting: for `NCCS` the value was 1.17; for `COCCOC(=O)C1=C(C)NC(C)=C(C(=O)OC(C)C)C1c1cccc([N+](=O)[O-])c1` (configuration not stated), 0.989; for `COc1c(C)c2c(c(O)c1C/C=C(\C)CCC(=O)OCCN1CCOCC1)C(=O)OC2`, 1.37.
Consider `CN1C(C(=O)Nc2ccccn2)=C(O)c2ccccc2S1(=O)=O`, for which the relative cell density (vehicle: DMSO) was determined as 1.01.
On the same count and under the same terms, for `O=C(O)c1ccc(-n2nc(-c3ccccc3O)nc2-c2ccccc2O)cc1` the value was 0.833; for `C/C(O)=C(\C#N)C(=O)Nc1ccc(C(F)(F)F)cc1`, 0.527; for `COc1nc(C)cnc1NS(=O)(=O)c1cccnc1-c1ccc(-c2nnco2)cc1`, 0.968.
In the case of `N[C@@H](CC(=O)N1CCn2c(nnc2C(F)(F)F)C1)Cc1cc(F)c(F)cc1F`, under “vehicle: DMSO”, the relative cell density was 1.15 and 1.08.
As to `C=Cc1c(C)c2cc3nc(cc4[nH]c(cc5nc(cc1[nH]2)C(C)=C5CCC(=O)O)c(CCC(=O)OC)c4C)C1(C)C3=CC=C(C(=O)OC)C1C(=O)OC` (configuration not stated), the relative cell density (vehicle: DMSO) came out at 0.134.
For `CO[C@H]1O[C@H](COS(=O)(=O)O)[C@@H](O[C@@H]2O[C@@H](C(=O)O)[C@@H](O[C@H]3O[C@H](COS(=O)(=O)O)[C@@H](O[C@@H]4O[C@H](C(=O)O)[C@@H](O[C@H]5O[C@H](COS(=O)(=O)O)[C@@H](O)[C@H](O)[C@H]5NS(=O)(=O)O)[C@H](O)[C@H]4O)[C@H](OS(=O)(=O)O)[C@H]3NS(=O)(=O)O)[C@H](O)[C@H]2OS(=O)(=O)O)[C@H](O)[C@H]1NS(=O)(=O)O`, under “vehicle: Water”, the relative cell density was 0.953.
In the case of `CO/N=C(\C(=O)N[C@@H]1C(=O)N2C(C(=O)O)=C(CSC(=O)c3ccco3)CS[C@H]12)c1csc(N)n1`, the relative cell density (vehicle: DMSO) amounted to 1.19.
With `CN1[C@@H]2CC[C@H]1C[C@@H](OC(c1ccccc1)c1ccccc1)C2`, for the setting “vehicle: DMSO”, the relative cell density is 1.04.
Still for that read-out and setting: for `C[C@@H]1O[C@@H](OC[C@H]2O[C@@H](Oc3c(-c4ccc(O)c(O)c4)oc4cc(O)cc(O)c4c3=O)[C@H](O)[C@@H](O)[C@@H]2O)[C@H](O)[C@H](O)[C@H]1O` the value was 1.46.
Turning to `CCCC(=O)Nc1ccc(OCC(O)CNC(C)C)c(C(C)=O)c1` (configuration not stated), where the note is “vehicle: DMSO”, the relative cell density was found to be 0.949.
Same read-out and setting: then `CC(=O)/N=c1/sc(S(N)(=O)=O)nn1C`, with 1.12; and `CC1=CC(=O)c2ccccc2C1=O`, with 1.15; and `Cc1ccc(C(=O)N(CCCN)[C@@H](c2nc3cc(Cl)ccc3c(=O)n2Cc2ccccc2)C(C)C)cc1`, with 0.445.
Same read-out and setting: for `CCCCOC(=O)c1ccc(O)cc1` the value was 1.11; for `COCCCOc1cc(C[C@@H](C[C@H](N)[C@@H](O)C[C@H](C(=O)NCC(C)(C)C(N)=O)C(C)C)C(C)C)ccc1OC`, 1.3.
With `CCCc1nc2c(C)cc(-c3nc4ccccc4n3C)cc2n1Cc1ccc(-c2ccccc2C(=O)O)cc1`, the relative cell density (vehicle: DMSO) was found to be 0.92.
Under “vehicle: DMSO”, `CN(C)c1cc(NC(=O)CNC(C)(C)C)c(O)c2c1CC1CC3C(N(C)C)C(=O)C(C(N)=O)=C(O)C3(O)C(=O)C1=C2O` (configuration not stated) showed a relative cell density of 1.42.
On the same count and under the same terms, for `CCCCC1C(=O)N(c2ccccc2)N(c2ccccc2)C1=O` the value was 1.02; for `COc1cc2ncnc(Nc3ccc(F)c(Cl)c3)c2cc1NC(=O)/C=C/CN1CCCCC1`, 0.859.
Where the note is “vehicle: DMSO”, `Cc1ccc(C(=O)C(C)CN2CCCCC2)cc1` (configuration not stated) returned a relative cell density of 1.46.
Same read-out and setting: then `CNCC[C@@H](Oc1ccccc1C)c1ccccc1`, with 0.0849.
Still for that read-out and setting: for `CC(C)(O)CNc1nc(Nc2ccnc(C(F)(F)F)c2)nc(-c2cccc(C(F)(F)F)n2)n1` the value was 1.06; for `COCCCOc1ccnc(C[S+]([O-])c2nc3ccccc3[nH]2)c1C` (configuration not stated), 1.27; for `O=C(O)Cc1cc(I)c(Oc2ccc(O)c(I)c2)c(I)c1`, 1.25.
